{"source": "patent US20160114000A1", "about": "(Merck Sharp & Dohme, published 2016)", "key": {"[1]": {"assay": "general procedure: Fmoc solid-phase peptide synthesis; Rink-amide PEG-PS resin, Champion (Biosearch Technologies, 0.28 mmol/g); Rink-amide PS resin (0.47 mmol/g); Rink-amide P; HATU/DIEA with HOBt; DIPC/HOAt for manual couplings", "details": "whole synthesis, scale of the general procedure 150 μmol; for final HPLC purity: Acquity UPLC Waters, BEH300 C4, 45 °C, 0.1% TFA"}, "[2]": {"assay": "Fmoc solid-phase peptide synthesis; MBHA polystyrene resin (0.21 mmol/g); HATU/DIEA with HOBt; DIPC/HOAt for manual couplings", "details": "whole synthesis, scale 0.15 mmol"}}}
{"substance": "Ac-His^1-Ala^2-Gln-Gly-Thr-Phe-Thr-Ser-Asp-Lys^10(γGlu-γGlu-C16)-Ser-Lys-Tyr-Leu-Asp^15-Glu^16-Arg-Ala-Ala-Gln-Asp-Phe^22-Val^23-Gln-Trp^25-Leu-Leu-Asp-Thr-CONH2", "values": [{"measurement": "final HPLC purity", "setting": "[1]", "value": ">90", "unit": "% pure"}, {"measurement": "isolated yield", "setting": "[1]", "value": "Yield 10%"}]}
{"substance": "His^1-D-Ser^2-Gln-Gly-Thr-Phe-Thr-S er-Asp-Lys^10(γGlu-C16)-Ser-Lys-Tyr-Leu-Asp-Val-Arg-Ala-Ala-Gln-Asp-Phe^22-Val^23-Gln-Trp-Leu-Leu-Asp-Thr-CONH2", "values": [{"measurement": "final HPLC purity", "setting": "[1]", "value": ">90", "unit": "% pure"}, {"measurement": "isolated yield", "setting": "[1]", "value": "Yield 27%"}]}
{"substance": "His^1-D-Ser^2-Gln-Gly-Thr-Phe-Thr-Ser-Asp-Lys^10(γGlu-C16)-Ser-Lys-Tyr-Leu-Asp-Ala-Arg-Ala-Ala-Gln-Asp-Phe^22-Val^23-Gln-Trp-Leu-Leu-Asp-Thr-CONH2", "values": [{"measurement": "final HPLC purity", "setting": "[1]", "value": 95, "unit": "% pure"}, {"measurement": "isolated yield", "setting": "[1]", "value": "Yield 21%"}]}
{"substance": "His^1-D-Ser^2-Gln-Gly-Thr-Phe-Thr-Ser-Asp-Lys^10(γGlu-γGlu-C16)-Ser-Lys-Tyr-Leu-Asp-Ala-Arg-Ala-Ala-Gln-Asp-Phe^22-Val^23-Gln-Trp-Leu-Leu-Asp-Thr-CONH2", "values": [{"measurement": "final HPLC purity", "setting": "[1]", "value": ">90", "unit": "% pure"}, {"measurement": "isolated yield", "setting": "[1]", "value": "The yield was 15%"}]}
{"substance": "His^1-D-Ser^2-Gln-Gly-Thr-Phe-Thr-Ser-Asp-Lys^10(γGlu-γGlu-C16)-Ser-Lys-Tyr-Leu-Asp-Glu-Arg-Ala-Ala-Gln-Asp-Phe^22-Val^23-Gln-Trp-Leu-Leu-Asp-Thr-CONH2", "values": [{"measurement": "isolated mass", "setting": "[2]", "value": 15, "unit": "mg"}]}
{"substance": "His^1-D-Ser^2-Gln-Gly-Thr-Phe-Thr-Ser-Asp-Lys^10(γGlu-γGlu-C16)-Ser-Lys-Tyr-Leu-Asp-Val-Arg-Ala-Ala-Gln-Asp-Phe^22-Val^23-Gln-Trp-Leu-Leu-Asp-Thr-CONH2", "values": [{"measurement": "final HPLC purity", "setting": "[1]", "value": ">90", "unit": "% pure"}, {"measurement": "isolated yield", "setting": "[1]", "value": "Yield 20%"}]}
{"substance": "His^1-D-Ser^2-Gln-Gly-Thr-Phe-Thr-Ser-Asp-Lys^10(γGlu-γGlu-C16)-Ser-Lys-Tyr-Leu-Glu^15-Ala^16-Arg-Ala-Ala-Gln-Asp-Phe^22-Val^23-Gln-Trp^25-Leu-Leu-Asp-Thr-CONH2", "values": [{"measurement": "final HPLC purity", "setting": "[1]", "value": "the purity >90%"}, {"measurement": "isolated yield", "setting": "[1]", "value": "The yield was 18%"}]}
{"substance": "His^1-D-Ser^2-Val-Gly-Thr-pFF^6-Thr-Ser-Asp-Lys^10(γGlu-γGlu-C16)-Ser-Lys-Tyr-Leu-Asp^15-Glu^16-Arg-Ala-Ala-Gln-Asp-Phe^22-Val^23-Gln-Trp^25-Leu-Leu-Asp-Thr-CONH2", "values": [{"measurement": "final HPLC purity", "setting": "[1]", "value": ">90", "unit": "% pure"}, {"measurement": "isolated yield", "setting": "[1]", "value": "Yield 12%"}]}
